In the odorant receptor screen of Mainland et al. (2015):
Values joined by “and” are separate entries in the source; they are usually repeats but may differ in a detail not shown here. Equal entries are not always repeated. The list shows a part of the results. Single wells; the ratio to wells without odorant was worked out here, and repeats agree poorly.

Chains of the proteins cited; added tags and fusions are not shown. A line that says so, or that is headed by a name, gives the form on record, which may keep a tag or linker.
pseudo, as listed by the source: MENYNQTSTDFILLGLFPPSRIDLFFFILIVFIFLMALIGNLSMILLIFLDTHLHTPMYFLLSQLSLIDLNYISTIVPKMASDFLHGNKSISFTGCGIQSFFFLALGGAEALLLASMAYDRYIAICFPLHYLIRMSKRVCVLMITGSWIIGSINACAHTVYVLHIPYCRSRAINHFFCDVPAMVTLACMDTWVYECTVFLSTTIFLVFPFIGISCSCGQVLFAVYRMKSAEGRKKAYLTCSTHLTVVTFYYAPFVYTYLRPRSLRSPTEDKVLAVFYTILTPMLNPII

Assays:
Test in all cases: odorant receptor activation (CRE luciferase / Renilla) (fold of no-odor wells); higher = more activation
Settings in all cases: 100 µM
[1] = system: OR9K2 clone 1389
[2] = system: OR9Q1 A2V clone 1713
[3] = system: OR9Q2 C179R clone 1310
[4] = system: OR9Q2 clone 1177
[5] = system: OR9Q2 clone 1501
[6] = system: pseudo clone 1035
[7] = system: pseudo clone 1218
[8] = system: pseudo clone 1380
[9] = system: pseudo clone 1384
[10] = system: pseudo clone 1417

SMILES: CCCCO [1-butanol]
- odorant receptor activation [1]: 1.6
- odorant receptor activation [2]: 0.93
- odorant receptor activation [3]: 0.757
- odorant receptor activation [4]: 0.858
- odorant receptor activation [5]: 1.45
- odorant receptor activation [6]: 1.98
- odorant receptor activation [7]: 0.987
- odorant receptor activation [8]: 0.82
- odorant receptor activation [9]: 1.5
- odorant receptor activation [10]: 1.05

SMILES: C=CC(C)(O)CCC=C(C)C (configuration not stated) [linalool]
- odorant receptor activation [1]: 0.764
- odorant receptor activation [2]: 1.48
- odorant receptor activation [3]: 1.13
- odorant receptor activation [4]: 1.14
- odorant receptor activation [5]: 0.814
- odorant receptor activation [6]: 1.05
- odorant receptor activation [7]: 1
- odorant receptor activation [8]: 0.894
- odorant receptor activation [9]: 1.12
- odorant receptor activation [10]: 0.722

SMILES: C=CCc1ccc(O)c(OC)c1 [eugenol]
- odorant receptor activation [1]: 1.16 and 1.65
- odorant receptor activation [2]: 1.11
- odorant receptor activation [3]: 1.97 and 1.19
- odorant receptor activation [4]: 3.3 and 1.3
- odorant receptor activation [5]: 1.34 and 0.858 and 1.27
- odorant receptor activation [6]: 0.745 and 1.26
- odorant receptor activation [7]: 1.41 and 1.16
- odorant receptor activation [8]: 1.38 and 1.22
- odorant receptor activation [9]: 1.73 and 0.983
- odorant receptor activation [10]: 1.4 and 1.77

SMILES: CCCCCCCCOC(C)=O [octyl acetate]
- odorant receptor activation [1]: 1.19
- odorant receptor activation [2]: 0.927
- odorant receptor activation [3]: 1.11
- odorant receptor activation [4]: 1.32
- odorant receptor activation [5]: 0.845
- odorant receptor activation [6]: 0.932
- odorant receptor activation [7]: 0.901
- odorant receptor activation [8]: 1.03
- odorant receptor activation [9]: 1.18
- odorant receptor activation [10]: 0.743

SMILES: O=C1CCCCC1 [Cyclohexanone]
- odorant receptor activation [1]: 0.803
- odorant receptor activation [3]: 1.09
- odorant receptor activation [4]: 1.05
- odorant receptor activation [5]: 1.23 and 0.754
- odorant receptor activation [6]: 0.863
- odorant receptor activation [7]: 0.908
- odorant receptor activation [8]: 0.847
- odorant receptor activation [9]: 0.768
- odorant receptor activation [10]: 0.873

SMILES: CC(C)=CCCC(C)=CC=O [citral]
- odorant receptor activation [1]: 0.264
- odorant receptor activation [2]: 1.1
- odorant receptor activation [3]: 1.14
- odorant receptor activation [4]: 1.19
- odorant receptor activation [5]: 1.28
- odorant receptor activation [6]: 1.37
- odorant receptor activation [7]: 1.11
- odorant receptor activation [8]: 0.316
- odorant receptor activation [9]: 0.176
- odorant receptor activation [10]: 0.253

SMILES: CC(C)C=O [isobutyraldehyde]
- odorant receptor activation [1]: 0.798
- odorant receptor activation [2]: 1.33
- odorant receptor activation [3]: 0.984 and 0.979
- odorant receptor activation [4]: 1.1
- odorant receptor activation [5]: 0.905 and 0.976
- odorant receptor activation [6]: 2.1
- odorant receptor activation [7]: 1.38
- odorant receptor activation [8]: 0.877
- odorant receptor activation [9]: 0.914
- odorant receptor activation [10]: 0.869

SMILES: CC12CCC(C1)C(C)(C)C2=O (configuration not stated) [fenchone]
- odorant receptor activation [1]: 0.882
- odorant receptor activation [2]: 0.624
- odorant receptor activation [3]: 0.997
- odorant receptor activation [4]: 0.944
- odorant receptor activation [5]: 0.897
- odorant receptor activation [6]: 0.973
- odorant receptor activation [7]: 1.05
- odorant receptor activation [8]: 0.968
- odorant receptor activation [9]: 0.78
- odorant receptor activation [10]: 1.3

SMILES: CCCCCCCCC=O [nonyl aldehyde]
- odorant receptor activation [1]: 0.94
- odorant receptor activation [2]: 0.854
- odorant receptor activation [3]: 0.993
- odorant receptor activation [4]: 1.13
- odorant receptor activation [5]: 0.943
- odorant receptor activation [6]: 1
- odorant receptor activation [7]: 1.12
- odorant receptor activation [8]: 0.834
- odorant receptor activation [9]: 1.04
- odorant receptor activation [10]: 0.632

SMILES: CC(C)(C)c1ccc(CCC=O)cc1 [bourgeonal]
- odorant receptor activation [1]: 0.212
- odorant receptor activation [3]: 0.829
- odorant receptor activation [4]: 0.754
- odorant receptor activation [5]: 1.05
- odorant receptor activation [6]: 0.937
- odorant receptor activation [7]: 0.665
- odorant receptor activation [8]: 0.224
- odorant receptor activation [9]: 0.166
- odorant receptor activation [10]: 0.229

SMILES: COC(=O)c1ccccc1 [methyl benzoate]
- odorant receptor activation [1]: 0.801
- odorant receptor activation [3]: 1.03
- odorant receptor activation [4]: 0.837
- odorant receptor activation [5]: 0.912 and 0.778
- odorant receptor activation [6]: 0.975
- odorant receptor activation [7]: 0.696
- odorant receptor activation [8]: 0.841
- odorant receptor activation [9]: 0.825
- odorant receptor activation [10]: 0.775

SMILES: COc1cc(C=O)ccc1O [vanillin]
- odorant receptor activation [1]: 1.05
- odorant receptor activation [2]: 0.995
- odorant receptor activation [3]: 0.992
- odorant receptor activation [4]: 1.06
- odorant receptor activation [5]: 1.15
- odorant receptor activation [6]: 0.887
- odorant receptor activation [7]: 0.864
- odorant receptor activation [8]: 1.14
- odorant receptor activation [9]: 1.13
- odorant receptor activation [10]: 0.954
